Reference: publication PMC7280208
Results are given in words; binding and its absence hold for the method and conditions named. Some entries that bind do so weakly or less than the wild type.

Protein sequences, listed by entry. Tags and fused reporters are not part of them. Residues count along the entry.
UniProt Q9JI78, residues 1-119: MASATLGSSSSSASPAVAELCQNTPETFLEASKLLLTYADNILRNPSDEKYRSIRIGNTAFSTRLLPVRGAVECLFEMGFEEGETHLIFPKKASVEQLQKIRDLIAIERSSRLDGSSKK
UniProt P54727, residues 1-82: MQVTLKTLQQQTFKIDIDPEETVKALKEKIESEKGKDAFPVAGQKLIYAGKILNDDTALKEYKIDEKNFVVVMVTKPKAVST

What was measured:
[1] = target: PUB domain of peptide:N-glycanase (UniProt Q9JI78); assay: AUC; sedimentation equilibrium (SE-AUC), absorbance optics; [hHR23b-UBL] = [PNGase-PUB] = 100, 75 and 50 uM; 20,000, 30,000 and 35,000 r.p.m.; 10 mM sodium phosphate buffer pH 7.0; 25 °C; global fit with one KD (SEDPHAT, A + B to AB model); both purified
[2] = target: PUB domain of peptide:N-glycanase (UniProt Q9JI78); assay: AUC; sedimentation velocity (SV-AUC) of hHR23b-UBL (200 µM), PNGase-PUB (200 µM) and their mixture (200 µM each) in 10 mM sodium phosphate buffer (PB, pH 7.0, no salt); 60,000 r.p.m., Rayleigh interference optics, 25 °C; both purified
[3] = target: PUB domain of peptide:N-glycanase (UniProt Q9JI78); assay: condition: only in PBS (137 mM NaCl, 2.7 mM KCl, pH 7.4); 200 µM of each protein; AUC; sedimentation velocity (SV-AUC) of hHR23b-UBL (200 µM), PNGase-PUB (200 µM) and their mixture (200 µM each) in PBS (8.1 mM Na2HPO4, 1.47 mM KH2PO4, 137 mM NaCl, 2.7 mM KCl, pH 7.4); 60,000 r.p.m., Rayleigh interference optics, 25 °C; both purified

binding [1]: binds weakly
binding [2]: binds weakly
binding [3]: no binding
Substance: ubiquitin-like domain of the proteasome shuttle factor hHR23b (from UniProt P54727 1-82) (domain or fragment)
